# Experimental data published in the supplement of paper PMC3334620.
# Whole data set: some 33,000 sequences, median “E-score (-0.5 to 0.5)” near -0.0059, cut for the highest 2% near 0.26. The list shows a part of the results.
# Target: T1, Cin5 (UniProt P40917)
# T1 sequence: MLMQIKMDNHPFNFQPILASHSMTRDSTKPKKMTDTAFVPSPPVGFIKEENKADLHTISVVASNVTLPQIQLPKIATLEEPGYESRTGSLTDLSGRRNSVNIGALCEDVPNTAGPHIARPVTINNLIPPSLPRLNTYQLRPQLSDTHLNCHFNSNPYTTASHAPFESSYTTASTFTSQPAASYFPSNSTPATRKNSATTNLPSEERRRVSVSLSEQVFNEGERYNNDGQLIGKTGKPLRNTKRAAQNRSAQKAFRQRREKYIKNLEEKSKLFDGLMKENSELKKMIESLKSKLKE
# Assay: PBM E-score (8-mer binding enrichment) (E-score (-0.5 to 0.5)); higher = stronger / more preferred TF binding
# Conditions: protein concentration: 100 nM; construct: GST-full length
# How it was run: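 Each ungapped eight-base word and its reverse complement, pooled, received an E-score from the Universal PBM Analysis Suite. Underlying scans, normalised with masliner, recorded fluorescent anti-GST bound to GST-tagged yeast transcription factors. These were applied at about 100-200 nM to universal all-10-mer Agilent arrays double-stranded by primer extension.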
row,Sequence,PBM E-score
1,GATGTGAC,-0.0723
2,CACTCGAG,-0.094
3,GATCGATC,0.0112
4,CCTTGTAC,-0.093
5,CCCCATAC,0.0266
6,AGCTCAGG,-0.0925
7,AGTTTTGG,0.0675
8,GTGACCTA,-0.0621
9,CGTGGTAG,-0.0737
10,AAATCCGA,0.0419
11,CGCTGATC,0.157
12,CCAAGGTC,-0.0444
13,GCGGTCTA,0.0342
14,AGCAATTG,0.106
15,ACGCAGCT,-0.12
16,GGAACCAC,-0.0344
17,CATCCAGG,-0.134
18,CACTATAA,-0.0724
19,ATATACTC,0.209
20,AAGCCGGC,0.168
21,AGCGTATA,0.158
22,AGGGCATC,-0.195
23,CATGCGTA,0.145
24,TGCACGCA,-0.149
25,CCAAGAAA,0.0846

row,Sequence,PBM E-score
1,AATACTAA,0.208
2,GGTAGGAA,-0.0518
3,ATCAAAAT,-0.0169
4,AACGTTCA,-0.124
5,TAACCGAA,-0.106
6,ATCTGATC,0.0996
7,CCGTCGCC,-0.0908
8,GGTGAATA,0.119
9,AAACAGAC,0.22
10,ACGGACTA,-0.0462
11,CGCTTAAG,-0.0869
12,ATAGCTGG,-0.0708
13,AGGGGCGG,-0.059
14,ACCTAGCG,-0.0233
15,CAATAGGG,0.045
16,CGAGTCCC,-0.058
17,ACATTGTC,0.236
18,AAACCCAC,0.116
19,CCGCTGTC,-0.0743
20,CACGTAAG,0.288
21,AAGCCTGC,-0.0381
22,TATACCGA,0.102
23,CCAGCAAA,0.163
24,ATTGACAA,0.0993
25,AAATACTA,0.112

row,Sequence,PBM E-score
1,AAATTTGC,0.0332
2,GTCTGGTA,-0.0727
3,GGCTCGAA,-0.0888
4,TCTACCCA,0.0615
5,GATGAAGC,-0.0138
6,GAGGACCC,-0.14
7,ATAATCAG,0.285
8,CATGGGTA,-0.109
9,CGTATGAC,0.0189
10,AAAAATTC,0.13
11,ACACGTTA,-0.0689
12,AAAAGCAC,-0.188
13,ACCATAGC,0.00966
14,TAACAACA,0.179
15,CTTGTTGC,-0.0415
16,ATTAGCCG,0.0336
17,CACGTGCG,-0.142
18,CACCTCCA,-0.0922
19,ATGTAGAC,-0.131
20,ATAGTTAG,0.14
21,TAGGATGA,0.162
22,GTATTGTA,0.274
23,AGCTCTAA,0.00448
24,CTCAAGAG,-0.238
25,CACTAATA,0.158

row,Sequence,PBM E-score
1,AGACACCT,-0.048
2,AGCATGCA,0.0296
3,CCTTACCG,-0.12
4,ATATTGTA,0.151
5,CACACGGA,-0.0731
6,GGGCTACC,-0.226
7,CTGCGACA,0.0959
8,ATAGTACG,0.182
9,CAATGATC,-0.0322
10,ATTGGACA,0.17
11,AAGCCAAG,-0.06
12,CATCGATG,0.0124
13,ATACCAGG,-0.0244
14,AGATTAAC,0.0211
15,CCACGGGC,-0.182
16,AGTTTGAA,0.0821
17,CTCTCAGC,-0.237
18,CCCGCTCG,-0.134
19,ACAATTGA,0.212
20,ACGCAGAA,0.157
21,GTTTAAGA,-0.218
22,ACCGCAGC,-0.141
23,AGACTGCA,-0.166
24,AGCAGGTC,-0.052
25,CCAGGATC,-0.138

# Another view of some results above:
row	Sequence	PBM E-score
22	AGGGCATC	-0.195
23	CATGCGTA	0.145
24	TGCACGCA	-0.149
25	CCAAGAAA	0.0846
1	AATACTAA	0.208

# The listing continues.

row,Sequence,PBM E-score
1,ATCACTCG,0.146
2,AGCTGCAG,-0.00408
3,CCTAAAGG,-0.28
4,GTTTTAGA,-0.146
5,CATCTGTC,0.0521
6,CCAGTCCA,-0.208
7,CCCAAATC,-0.123
8,AACAGGAA,0.0285
9,ATGTTAGA,-0.0834
10,CTATTATA,0.142
11,GGAGCGCC,-0.272
12,CCTCCGAC,-0.35
13,CCACTACC,-0.155
14,CCCGAGCC,-0.173
15,CTAACACA,0.064
16,GCTCCTTA,-0.122
17,TCGCCCCA,0.0796
18,AACTACGA,-0.0317
19,AAGCACTA,0.0886
20,CACTAGGA,-0.2
21,TATTGGCA,0.175
22,GTAGATTA,0.232
23,CTAGACAC,-0.0244
24,ATAGGCTA,-0.119
25,CCTAATTC,-0.0431

row,Sequence,PBM E-score
1,TGCAGGAA,0.148
2,AAAAACCG,0.0407
3,AAGACGGA,0.047
4,CTCGACCC,-0.157
5,TATCTGAA,0.015
6,ATAGGAGC,-0.157
7,AATTTCGA,0.0153
8,GAAGAGAA,-0.0163
9,CTCTTTGC,0.0175
10,AACAGTTC,0.164
11,GTTAACAA,0.17
12,ACCTCTAC,0.0319
13,GGACCCCA,0.0267
14,CGGTGCAG,-0.199
15,GAGAGGTA,-0.154
16,CAACTTTC,0.205
17,CGTAACCC,0.126
18,AATACTTC,0.121
19,ACATCGTC,0.0282
20,CATTGTCC,0.117
21,GCGCCAAA,-0.0164
22,GTCGCACA,-0.107
23,GCCTCCGC,-0.203
24,CCTCGGAC,-0.0927
25,ACTCGACG,0.182

row,Sequence,PBM E-score
1,GCCGTCCC,-0.0504
2,CCGATTAA,0.117
3,CATATGGG,0.196
4,CAAATCAC,0.00887
5,AGATGCCT,-0.145
6,AGTAAACG,0.00145
7,CGATGAAA,0.0992
8,ACGGCTTA,0.164
9,CGCACACC,-0.0711
10,AGACACGA,0.0347
11,TGACTGAA,-0.0895
12,AACTAGAG,0.00264
13,ATCTACCG,0.096
14,ACAATCTA,0.0868
15,GGGATGCA,-0.1
16,CATCTGGG,-0.0703
17,GCTTAGCC,-0.0819
18,CCGAGTGA,0.091
19,GACTCGCC,-0.306
20,GATACTCA,0.139
21,ACTAGAGG,-0.255
22,GATCTAAA,0.0626
23,GGGAGCGA,-0.196
24,ATCACTCA,0.135
25,TTAGGCAA,-0.083

row,Sequence,PBM E-score
1,CCATACGG,0.0183
2,ACAACACG,0.125
3,AGATTTAT,0.12
4,AACATAAA,0.0668
5,GGGGACGA,-0.205
6,AATTACAA,0.203
7,CCGGCTAA,-0.0334
8,CTGGGACA,-0.193
9,AACGCACT,-0.037
10,TAGCGCAA,0.102
11,GCGTATTA,0.0794
12,GTAGCGCA,0.00531
13,GGCAAGCC,-0.26
14,AAACTTCT,0.113
15,AATTTGTG,0.154
16,AAGGACAA,0.00528
17,CGGCTTAG,-0.0489
18,ACTCCCTA,-0.167
19,CCTAACAC,0.115
20,AGTACGCC,-0.271
21,ACGGTCTC,-0.227
22,ATTAGTCG,0.193
23,CACATCAG,-0.0698
24,GGGTAGTA,-0.108
25,CCATCGCG,0.206

row,Sequence,PBM E-score
1,GCATTTAA,0.151
2,GAAGTCCA,-0.133
3,AGAAGGCA,-0.123
4,CCGAGCAC,-0.0314
5,AGCGCCGC,-0.124
6,GTCGTCGA,-0.18
7,CACCCGAA,0.102
8,AATGCCGA,-0.0682
9,ACGAAATG,0.139
10,GGCGAAAA,0.0799
11,AGCAGAGA,0.0498
12,ACGCTGTA,0.0419
13,ACGTAGGA,-0.0756
14,CTTTAGAA,-0.0675
15,CTGCCGCA,-0.21
16,CTATAATC,0.194
17,GCCCAGGA,-0.178
18,TAACTATA,0.109
19,GCGGCAGC,-0.167

# Rewritten bar-delimited: part of the list above
row | Sequence | PBM E-score
17 | CATCCAGG | -0.134
2 | GGTAGGAA | -0.0518
7 | ATAATCAG | 0.285
24 | CTCAAGAG | -0.238
7 | CTGCGACA | 0.0959
9 | AACGCACT | -0.037
